Results from patent publication US11400070B2, “Methods of treating retinal diseases” (Alimera Sciences, Inc., priority 2018, dated 2022).

System: ARPE-19 monolayers
Assay: Suppression of gHSA-induced reduction of TEER in confluent ARPE-19 monolayers
Type: cell-based
Details: for Hill coefficient: ARPE-19 assay, concentration-response; for Hill coefficient of concentration response curve: regression analysis

SMILES	Hill coefficient	Hill coefficient of concentration response curve
Cc1cc(OCC(O)CNC(C)C)c(C)c(C)c1O (stereo not shown) [Desacetylmetipranolol, desacetylmetipranolol]	1	~1
CC(=O)Oc1c(C)cc(OCC(O)CNC(C)C)c(C)c1C (stereo not shown) [Metipranolol, metipranolol]	1	~1
